This is one part of the list. Many values rest on one well or one pass, so single values are uncertain.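 Cells were imaged in 1,536-well plates, and nuclei stained with an antibody against cleaved PARP were counted against all DNA-stained nuclei to give the apoptosis fraction. Screening doses were chosen to leave most cells alive, and resting and induced cleaved-PARP levels differ strongly between cell lines.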
Legend:
Assay in all cases: cleaved PARP positive nuclei fraction relative to DMSO control; melanoma cells; higher = more apoptosis
Conditions in all cases: library dose: low library concentration; 72 h
501Mel = test system: 501Mel
A101D = test system: A101D
A2058 = test system: A2058
C32 = test system: C32
CBRC008 = test system: CBRC008 (line from a melanoma biopsy)
CBRC014 = test system: CBRC014 (line from a melanoma biopsy)
CBRC016 = test system: CBRC016 (line from a melanoma biopsy)
CBRC017 = test system: CBRC017 (line from a melanoma biopsy)
COLO792 = test system: COLO792
COLO800 = test system: COLO800
COLO829 = test system: COLO829
G361 = test system: G361
IPC-298 = test system: IPC-298
IST-MEL1 = test system: IST-MEL1
LB2518-MEL = test system: LB2518-MEL
LOXIMVI = test system: LOXIMVI

| SMILES | cleaved PARP positive nuclei fraction (501Mel) | cleaved PARP positive nuclei fraction (A101D) | cleaved PARP positive nuclei fraction (A2058) | cleaved PARP positive nuclei fraction (C32) | cleaved PARP positive nuclei fraction (CBRC008) | cleaved PARP positive nuclei fraction (CBRC014) | cleaved PARP positive nuclei fraction (CBRC016) | cleaved PARP positive nuclei fraction (CBRC017) | cleaved PARP positive nuclei fraction (COLO792) | cleaved PARP positive nuclei fraction (COLO800) | cleaved PARP positive nuclei fraction (COLO829) | cleaved PARP positive nuclei fraction (G361) | cleaved PARP positive nuclei fraction (IPC-298) | cleaved PARP positive nuclei fraction (IST-MEL1) | cleaved PARP positive nuclei fraction (LB2518-MEL) | cleaved PARP positive nuclei fraction (LOXIMVI) |
| --- | --- | --- | --- | --- | --- | --- | --- | --- | --- | --- | --- | --- | --- | --- | --- | --- |
| Cn1c(=O)n(-c2ccc(C(C)(C)C#N)cc2)c2c3cc(-c4cnc5ccccc5c4)ccc3ncc21 + c1cc(-c2cnn3cc(-c4ccc(OCCN5CCCCC5)cc4)cnc23)ccn1 [Dorsomorphin] (first compound 0.004 µM, partner dose 0.4 µM) | 101% | 30.1% | 166% | 104% | 156% | 79.2% | 41.7% | 102% | 137% | 105% | 91.2% | 115% | 143% | 169% | 120% | 77.4% |
| Nc1ccn([C@@H]2O[C@H](CO)[C@@H](O)C2(F)F)c(=O)n1 [gemcitabine] + COc1cc2ncnc(Nc3ccc(Oc4ccccc4)cc3)c2cc1OC [SrcI1] (first compound 0.0004 µM, partner dose 2 µM) | 38.2% | 11.9% | 76.2% | 65.7% | 183% | 123% | 162% | 113% | 144% | 180% | 70.9% | 93.2% | 100% | 316% | 62.8% | 188% |
| CN1CCN(c2ccc3nc(-c4c(N)c5c(F)cccc5[nH]c4=O)[nH]c3c2)CC1 [Dovitinib] + c1cc(-c2cnn3cc(-c4ccc(OCCN5CCCCC5)cc4)cnc23)ccn1 [Dorsomorphin] (first compound 0.1 µM, partner dose 0.4 µM) | 71.9% | 50.2% | 183% | 64.6% | 226% | 91.4% | 67.4% | 140% | 24.1% | 157% | 209% | 64% | 96% | 107% | 169% | 85.8% |
| CN1CCN(c2ccc3nc(-c4c(N)c5c(F)cccc5[nH]c4=O)[nH]c3c2)CC1 [Dovitinib] + O=C1NC(=O)/C(=C/c2ccc(-c3ccc(F)cc3O)o2)S1 [AS252424] (first compound 0.1 µM, partner dose 1 µM) | 82.5% | 20.4% | 44.9% | 77.8% | 118% | 97.4% | 49.5% | 54.3% | 146% | 51% | 45.1% | 122% | 96% | 51.9% | 79.6% | 195% |
| Nc1nc(F)nc2c1ncn2[C@@H]1O[C@H](CO)[C@@H](O)[C@@H]1O [fludarabine] + CCN(CC)CCCCNc1ncc2cc(-c3cc(OC)cc(OC)c3)c(NC(=O)NC(C)(C)C)nc2n1 [PD173074] (first compound 0.2 µM, partner dose 0.1 µM) | 1350% | 13.8% | 112% | 122% | 40.9% | 122% | 80.6% | 219% | 32.4% | 196% | 63.4% | 103% | 51.4% | 115% | 76.8% | 108% |
| CCCS(=O)(=O)Nc1ccc(F)c(C(=O)c2c[nH]c3ncc(Cl)cc23)c1F + c1cc(-c2cnn3cc(-c4ccc(OCCN5CCCCC5)cc4)cnc23)ccn1 [Dorsomorphin] (first compound 0.08 µM, partner dose 0.4 µM) | 70.6% | 39.3% | 121% | 41.7% | 45.9% | 109% | 125% | 118% | 100% | 149% | 51.7% | 56.5% | 132% | 93.7% | 67.3% | 177% |
| CN1CCN(c2ccc3nc(-c4c(N)c5c(F)cccc5[nH]c4=O)[nH]c3c2)CC1 [Dovitinib] + CC(C)CCN1c2nc(Nc3cc(F)c(O)c(F)c3)ncc2N(C)C(=O)C1C [BID1870] (first compound 0.1 µM, partner dose 0.2 µM) | 144% | 42.6% | 165% | 77% | 186% | 105% | 113% | 195% | 106% | 76.4% | 120% | 92.5% | 206% | 38% | 147% | 350% |
| Nc1ncn([C@H]2C[C@H](O)[C@@H](CO)O2)c(=O)n1 [decitabine] + c1cc(-c2cnn3cc(-c4ccc(OCCN5CCCCC5)cc4)cnc23)ccn1 [Dorsomorphin] (first compound 0.1 µM, partner dose 0.4 µM) | 27.4% | 39% | 28.3% | 91.2% | 51.3% | 108% | 21.8% | 193% | 134% | 131% | 137% | 155% | 116% | 209% | 218% | 128% |
| Cc1cc(Nc2cc(N3CCN(C)CC3)nc(/C=C/c3ccccc3)n2)n[nH]1 + O=C1NC(=O)/C(=C/c2ccc(-c3ccc(F)cc3O)o2)S1 [AS252424] (first compound 0.04 µM, partner dose 1 µM) | 70.2% | 19.7% | 59.9% | 354% | 181% | 88.4% | 16.1% | 98% | 88% | 24% | 127% | 144% | 88.6% | 123% | 71.7% | 146% |
| Nc1nc(F)nc2c1ncn2[C@@H]1O[C@H](CO)[C@@H](O)[C@@H]1O [fludarabine] + O=c1cc(-c2cccc3c2Sc2ccccc2S3)oc(N2CCOCC2)c1 [KU55933] (first compound 0.2 µM, partner dose 1 µM) | 4270% | 54% | 63.8% | 26.9% | 180% | 84% | 88.8% | 91.9% | 104% | 129% | 82% | 147% | 67.8% | 51.7% | 116% | 41.3% |
| C=C(c1ccc(C(=O)O)cc1)c1cc2c(cc1C)C(C)(C)CCC2(C)C [Bexarotene] + CCc1ccc(CCOc2ccc(CC3SC(=O)NC3=O)cc2)nc1 [pioglitazone] (first compound 2 µM, partner dose 2 µM) | 65.1% | 10.4% | 68.5% | 158% | 116% | 86.7% | 107% | 110% | 98.4% | 49.8% | 39.9% | 131% | 121% | 63.9% | 81.7% | 66.5% |
| O=C(O)[C@@H]1[O][Sb](=[O])([O][Sb]2(=[O])[O][C@H]([C@H](O)CO)[C@H](O)[C@H](C(=O)O)[O]2)[O][C@H]([C@H](O)CO)[C@@H]1O (stereo partly drawn) [stibogluconate] + Cc1cc([N+](=O)[O-])ccc1NS(=O)(=O)c1cc(Cl)ccc1Cl [FH535] (first compound 2 µM, partner dose 1 µM) | 65.7% | 48.6% | 174% | 35% | 766% | 178% | 996% | 301% | 50.7% | 45.8% | 93% | 66.5% | 53.5% | 78.6% | 153% | 111% |
| CNC(=O)c1cc(Oc2ccc(NC(=O)Nc3ccc(Cl)c(C(F)(F)F)c3)cc2)ccn1 [sorafenib] + Oc1nc(-c2ccc(C(F)(F)F)cc2)nc2c1CSCC2 [XAV939] (first compound 0.4 µM, partner dose 2 µM) | 61.9% | 12.6% | 118% | 124% | 185% | 39.6% | 77.1% | 122% | 60.7% | 86.9% | 126% | 96.3% | 68.7% | 141% | 32.9% | 62.6% |
| Cn1c(=O)n(-c2ccc(C(C)(C)C#N)cc2)c2c3cc(-c4cnc5ccccc5c4)ccc3ncc21 + Oc1nc(-c2ccc(C(F)(F)F)cc2)nc2c1CSCC2 [XAV939] (first compound 0.004 µM, partner dose 2 µM) | 71.8% | 23.3% | 62.4% | 132% | 174% | 77.9% | 23.9% | 93.5% | 212% | 130% | 97.4% | 64.6% | 66.9% | 96.1% | 73.8% | 84% |
| CO[C@H]1C[C@@H]2CC[C@@H](C)[C@@](O)(O2)C(=O)C(=O)N2CCCC[C@H]2C(=O)O[C@H]([C@H](C)C[C@@H]2CC[C@@H](OCCO)[C@H](OC)C2)CC(=O)[C@H](C)/C=C(\C)[C@@H](O)[C@@H](OC)C(=O)[C@H](C)C[C@H](C)/C=C/C=C/C=C/1C [everolimus] + O=C(Nc1ccccc1)c1cc([N+](=O)[O-])ccc1Cl [GW9662] (first compound 0.02 µM, partner dose 2 µM) | 98.5% | 28.1% | 327% | 181% | 81.1% | 102% | 71.6% | 88.5% | 223% | 62.4% | 114% | 150% | 170% | 122% | 64.9% | 55.3% |
| Nc1ccn([C@@H]2O[C@H](CO)[C@@H](O)C2(F)F)c(=O)n1 [gemcitabine] + COc1ccc(COc2ccc(Cc3cnc(N)nc3N)cc2OC)cc1 [GW2580] (first compound 0.0004 µM, partner dose 1 µM) | 57.5% | 39.2% | 65.2% | 278% | 92.8% | 136% | 95.3% | 108% | 112% | 121% | 140% | 112% | 87.9% | 125% | 209% | 67% |
| Cn1c(=O)n(-c2ccc(C(C)(C)C#N)cc2)c2c3cc(-c4cnc5ccccc5c4)ccc3ncc21 + O=C(O)C(=O)Nc1sc2c(c1C(=O)O)CCNC2 [TCS401] (first compound 0.004 µM, partner dose 1.66667 µM) | 69.2% | 23.6% | 14% | 233% | 60.7% | 96.2% | 70.4% | 137% | 220% | 165% | 56.1% | 167% | 96.6% | 159% | 66.8% | 139% |
| Nc1ccn([C@@H]2O[C@H](CO)[C@@H](O)C2(F)F)c(=O)n1 [gemcitabine] + COc1cc(N2CCC(N3CCN(C)CC3)CC2)ccc1Nc1ncc(Cl)c(Nc2ccccc2S(=O)(=O)C(C)C)n1 [NVP-TAE684] (first compound 0.0004 µM, partner dose 0.08 µM) | 62.4% | 18.1% | 291% | 131% | 285% | 149% | 88.2% | 110% | 140% | 99.4% | 62.2% | 54.6% | 147% | 231% | 34.3% | 33.9% |

Some of the entries so far, with bars between the fields:
SMILES | cleaved PARP positive nuclei fraction (501Mel) | cleaved PARP positive nuclei fraction (A101D) | cleaved PARP positive nuclei fraction (A2058) | cleaved PARP positive nuclei fraction (C32) | cleaved PARP positive nuclei fraction (CBRC008) | cleaved PARP positive nuclei fraction (CBRC014) | cleaved PARP positive nuclei fraction (CBRC016) | cleaved PARP positive nuclei fraction (CBRC017) | cleaved PARP positive nuclei fraction (COLO792) | cleaved PARP positive nuclei fraction (COLO800) | cleaved PARP positive nuclei fraction (COLO829) | cleaved PARP positive nuclei fraction (G361) | cleaved PARP positive nuclei fraction (IPC-298) | cleaved PARP positive nuclei fraction (IST-MEL1) | cleaved PARP positive nuclei fraction (LB2518-MEL) | cleaved PARP positive nuclei fraction (LOXIMVI)
Cn1c(=O)n(-c2ccc(C(C)(C)C#N)cc2)c2c3cc(-c4cnc5ccccc5c4)ccc3ncc21 + c1cc(-c2cnn3cc(-c4ccc(OCCN5CCCCC5)cc4)cnc23)ccn1 [Dorsomorphin] (first compound 0.004 µM, partner dose 0.4 µM) | 101% | 30.1% | 166% | 104% | 156% | 79.2% | 41.7% | 102% | 137% | 105% | 91.2% | 115% | 143% | 169% | 120% | 77.4%
Nc1ccn([C@@H]2O[C@H](CO)[C@@H](O)C2(F)F)c(=O)n1 [gemcitabine] + COc1cc2ncnc(Nc3ccc(Oc4ccccc4)cc3)c2cc1OC [SrcI1] (first compound 0.0004 µM, partner dose 2 µM) | 38.2% | 11.9% | 76.2% | 65.7% | 183% | 123% | 162% | 113% | 144% | 180% | 70.9% | 93.2% | 100% | 316% | 62.8% | 188%
